Measurements published in US20190154879A1, “Silicone Hydrogel Contact Lenses Having Improved Lubricity” (CooperVision International Holding Company, LP, priority 2016, published 2019).

What was measured:
[1] = Surfactant screening: kinetic coefficient of friction (CoF) of Lens-1 after overnight surfactant soak and overnight PBS wash; settings: soaked overnight, then 4 mL PBS overnight at room temperature, average n=3
[2] = Surfactant screening: kinetic coefficient of friction (CoF) of Lens-2 after overnight surfactant soak and overnight PBS wash; settings: soaked overnight, then 4 mL PBS overnight at room temperature, average n=3

Molecule | Lens-1 CoF ([1]; surfactant 0.1 wt. % in PBS) | Lens-2 CoF ([2]; surfactant 0.1 wt. % in PBS) | Lens-1 CoF ([1]; surfactant 0.5 wt. % in PBS) | Lens-2 CoF ([2]; surfactant 0.5 wt. % in PBS)
CCCCCCCCCC[N+](C)(C)CCCS(=O)(=O)[O-] [Zwittergent 3-10] | 0.98 | 1.08 |  | 
Coco betaine |  |  | 0.29 | 0.78
PEG-7 glyceryl cocoate |  |  | 0.09 | 0.75
tyloxapol | 0.09 | 0.23 |  | 
